Laboratory results: article PMC6627698, “Redesigning Arenicin-1, an Antimicrobial Peptide from the Marine Polychaeta Arenicola marina, by Strand Rearrangement or Branching, Substitution of Specific Residues, and Backbone Linearization or Cyclization” (Marine Drugs, 2019)
Marks after values point to notes of the source that are not given here. Residues, ends and D or L forms follow the SMILES beside them.

Columns and labels:
Assay type in all cases: cell-based
[1] = system: set of Gram-negative and Gram-positive bacteria, including drug-resistant clinical isolates; details: ratio of G-MIC of native AR to G-MIC of the peptide; * = higher overall activity than AR
Description: To obtain a global assessment of the effect on antimicrobial activity, the geometric mean of the MIC (G-MIC) was calculated, and from this, the overall improvement or impoverishment with respect to arenicin-1. In general, inverting the symmetry or decreasing the charge had detrimental effects.
The overall activity against a set of tested bacterial strains was determined by way of the commonly used geometric mean of measured MIC values. […] At the same time, the geometric mean can still discriminate antimicrobial agents showing minor variations in activity; in other words, it has a better “resolution” than the median MIC (MIC50). Some mathematical basics for choosing the geometric mean for antimicrobial activity comparison are further discussed in the Supplementary Chapter S3.

[2] = system: human erythroleukemia K-562 cells; details: for SI1 improvement ratio in comparison with AR: ratio of SI1 of the peptide to SI1 of native AR; for SI1 assessment IC50/G-MIC: selectivity index: K-562 IC50 / G-MIC
Description: The standard MTT ((3-(4,5-Dimethylthiazol-2-yl)-2,5-diphenyltetrazolium bromide) test was used for the examination of the cytotoxic activity of AMPs towards human erithroleukemia cells K-562. The cells were purchased from Biolot (Saint Petersburg, Russia) and were grown in RPMI 1640 medium (Biolot, Saint Petersburg, Russia) supplemented with glutamine and 10% FCS. Before the experiment, the culturing medium was replaced with serum-free RPMI 1640. Serial dilutions of the peptides in RPMI were plated in sterile 96-well microplates, and the target cells were dispensed to the microplates (10^5 cells/well in RPMI 1640). The plates were incubated for 24 h at 37 °C under 5% CO2. Cell-free media and cells incubated without peptides served as controls. Four hours before the incubation ended, MTT in PBS (5 mg/mL) was added to each well. After the incubation was stopped by adding isopropanol/ 0.04 M HCl, the optical density was measured at 540 nm, subtracting the background absorbance at 690 nm. Toxicity was determined by nonlinear regression analysis of the corresponding dose–response curves using the Sigma Plot 11 program to calculate the IC50 values (the concentration of the test substance that reduced the OD540 capacity by 50%).

[3] = system: human red blood cells; details: for SI2 improvement ratio in comparison with AR: ratio of SI2 of the peptide to SI2 of native AR; for SI3 improvement ratio in comparison with AR: ratio of SI3 of the peptide to SI3 of native AR; for SI3 assessment HC15/G-MIC: selectivity index: HC15 / G-MIC; for SI2 assessment HC50/G-MIC: selectivity index: HC50 / G-MIC

SMILES	G-MIC improvement ratio in comparison with AR [1]	SI1 improvement ratio in comparison with AR [2]	SI1 assessment IC50/G-MIC [2]	SI2 improvement ratio in comparison with AR [3]	SI3 improvement ratio in comparison with AR [3]	SI3 assessment HC15/G-MIC [3]	SI2 assessment HC50/G-MIC [3]
CC(C)C[C@@H]1NC(=O)[C@H](C(C)C)NC(=O)[C@H](CCCNC(=N)N)NC(=O)[C@H](Cc2ccc(O)cc2)NC(=O)[C@H](CCCNC(=N)N)NC(=O)[C@H](CCCNC(=N)N)NC(=O)[C@@H](NC(=O)[C@@H](N)Cc2c[nH]c3ccccc23)CSSC[C@H](NC(=O)[C@@H](N)Cc2c[nH]c3ccccc23)C(=O)N[C@@H](CCCNC(=N)N)C(=O)N[C@@H](CCCNC(=N)N)C(=O)N[C@@H](Cc2ccc(O)cc2)C(=O)N[C@@H](CCCNC(=N)N)C(=O)N[C@@H](C(C)C)C(=O)N[C@@H](CC(C)C)C(=O)N[C@@H](C(C)C)C(=O)N[C@H](C(=O)N[C@@H](CN)C(N)=O)CCCNC(=O)[C@H](C(C)C)NC1=O [ARs-C-B] (HELM PEPTIDE1{W.C.R.R.Y.R.V.L.V.[Orn].[NC[C@H](N[*:1])C(=O)[*:2]].[am]}|PEPTIDE2{W.C.R.R.Y.R.V.L.V}$PEPTIDE1,PEPTIDE2,2:R3-2:R3|PEPTIDE1,PEPTIDE2,10:R3-9:R2$$$V2.0; N-terminus assumed)	0.6	1.3 *	8.8	>0.7	3.3 *	12.7	>18.1
CC(C)C[C@@H]1NC(=O)[C@H](C(C)C)NC(=O)CNC(=O)[C@H](CCCNC(=N)N)NC(=O)[C@H](C(C)C)NC(=O)[C@H](CC(C)C)NC(=O)[C@H](C(C)C)NC(=O)[C@H](CCCNC(=N)N)NC(=O)[C@H](Cc2ccc(O)cc2)NC(=O)[C@H](CCCNC(=N)N)NC(=O)[C@H](CCCNC(=N)N)NC(=O)[C@@H](NC(=O)[C@@H](N)Cc2c[nH]c3ccccc23)CSSC[C@@H](C(=O)N[C@@H](Cc2c[nH]c3ccccc23)C(=O)O)NC(=O)[C@H](CCCNC(=N)N)NC(=O)[C@H](CCCNC(=N)N)NC(=O)[C@H](Cc2ccc(O)cc2)NC(=O)[C@H](CCCNC(=N)N)NC(=O)[C@H](C(C)C)NC1=O [ARs-C] (HELM PEPTIDE1{W.C.R.R.Y.R.V.L.V.R.G.V.L.V.R.Y.R.R.C.W}$PEPTIDE1,PEPTIDE1,2:R3-19:R3$$$V2.0; N-terminus assumed)	0.8	0.5	3.6	0.8	1.0	3.7	20.6
CC(C)[C@@H]1NC(=O)[C@H](CCCNC(=N)N)NC(=O)[C@H](C(C)C)NC(=O)[C@H](Cc2ccc(O)cc2)NC(=O)[C@H](C)NC(=O)[C@H](Cc2ccc(O)cc2)NC(=O)[C@H](C(C)C)NC(=O)[C@@H](NC(=O)[C@H](Cc2c[nH]c3ccccc23)NC(=O)[C@@H](N)CCCNC(=N)N)CSSC[C@H](NC(=O)[C@H](Cc2c[nH]c3ccccc23)NC(=O)[C@@H](N)CCCNC(=N)N)C(=O)N[C@@H](C(C)C)C(=O)N[C@@H](Cc2ccc(O)cc2)C(=O)N[C@@H](C)C(=O)N[C@@H](Cc2ccc(O)cc2)C(=O)N[C@@H](C(C)C)C(=O)N[C@@H](CCCNC(=N)N)C(=O)N[C@@H](C(C)C)C(=O)N[C@H](C(=O)N[C@@H](CN)C(N)=O)CCCNC1=O [ARs-N-B] (HELM PEPTIDE1{R.W.C.V.Y.A.Y.V.R.V.[Orn].[NC[C@H](N[*:1])C(=O)[*:2]].[am]}|PEPTIDE2{R.W.C.V.Y.A.Y.V.R.V}$PEPTIDE1,PEPTIDE2,3:R3-3:R3|PEPTIDE1,PEPTIDE2,11:R3-10:R2$$$V2.0)	0.5	0.9	6.0	>0.6	0.6	2.1	>13.7
CC(C)[C@@H]1NC(=O)CNC(=O)[C@H](CCCNC(=N)N)NC(=O)[C@H](C(C)C)NC(=O)[C@H](CCCNC(=N)N)NC(=O)[C@H](C(C)C)NC(=O)[C@H](Cc2ccc(O)cc2)NC(=O)[C@H](C)NC(=O)[C@H](Cc2ccc(O)cc2)NC(=O)[C@H](C(C)C)NC(=O)[C@@H](NC(=O)[C@H](Cc2c[nH]c3ccccc23)NC(=O)[C@H](CCCNC(=N)N)NC(=O)[C@@H](N)CCCNC(=N)N)CSSC[C@@H](C(=O)N[C@@H](Cc2c[nH]c3ccccc23)C(=O)O)NC(=O)[C@H](C(C)C)NC(=O)[C@H](Cc2ccc(O)cc2)NC(=O)[C@H](C)NC(=O)[C@H](Cc2ccc(O)cc2)NC(=O)[C@H](C(C)C)NC(=O)[C@H](CCCNC(=N)N)NC1=O [ARs-N] (HELM PEPTIDE1{R.R.W.C.V.Y.A.Y.V.R.V.R.G.V.R.V.Y.A.Y.V.C.W}$PEPTIDE1,PEPTIDE1,4:R3-21:R3$$$V2.0; N-terminus assumed)	≤0.1	≤0.1	≤0.7		≤0.2	≤0.9	
